# Data from the supplement of paper PMC4604168 (melanoma cell lines).
# This is one part of the list. Single values are uncertain, as repeats are few or missing.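 Imaging used 1,536-well plates; nuclei positive for cleaved PARP by antibody were divided by total DNA-stained nuclei to yield the apoptosis fraction. Doses for screening kept most cells viable, and cell lines differ markedly in resting and induced cleaved-PARP levels.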
# Legend:
# Experiment in all cases: cleaved PARP positive nuclei fraction relative to DMSO control; melanoma cells; higher = more apoptosis
# Conditions in all cases: library dose: low library concentration; 72 h
# [1] = test system: MZ2-MEL
# [2] = test system: MeWo
# [3] = test system: RPMI7951
# [4] = test system: RVH-421
# [5] = test system: SkMel28
# [6] = test system: SkMel2
# [7] = test system: SkMel30
# [8] = test system: SkMel5
# [9] = test system: UACC257
# [10] = test system: UACC62
# [11] = test system: WM115
# [12] = test system: WM1716
# [13] = test system: WM1745
# [14] = test system: WM3526
# [15] = test system: WM3619
# [16] = test system: WM451Lu
Compound,cleaved PARP positive nuclei fraction [1],cleaved PARP positive nuclei fraction [2],cleaved PARP positive nuclei fraction [3],cleaved PARP positive nuclei fraction [4],cleaved PARP positive nuclei fraction [5],cleaved PARP positive nuclei fraction [6],cleaved PARP positive nuclei fraction [7],cleaved PARP positive nuclei fraction [8],cleaved PARP positive nuclei fraction [9],cleaved PARP positive nuclei fraction [10],cleaved PARP positive nuclei fraction [11],cleaved PARP positive nuclei fraction [12],cleaved PARP positive nuclei fraction [13],cleaved PARP positive nuclei fraction [14],cleaved PARP positive nuclei fraction [15],cleaved PARP positive nuclei fraction [16]
"O=c1[nH]nc(Sc2ncc([N+](=O)[O-])s2)n1-c1ccc2c(c1)OCCO2 + O=S(=O)(c1ccccc1)N(CC(F)(F)F)c1ccc(C(O)(C(F)(F)F)C(F)(F)F)cc1 [T0901317] (first compound 0.2 µM, partner dose 1.4 µM)",97.9%,147%,68.5%,145%,152%,137%,37.3%,77.4%,92.6%,85.7%,159%,120%,102%,271%,184%,60.5%
"Cc1cn(-c2cc(NC(=O)c3ccc(C)c(Nc4nccc(-c5cccnc5)n4)c3)cc(C(F)(F)F)c2)cn1 [nilotinib] + Cc1ccc(NC(=O)c2cccc(N(C)C)c2)cc1NC(=O)c1ccc(O)cc1 [ZM336372] (first compound 0.2 µM, partner dose 2 µM)",73.8%,31.5%,35.6%,262%,139%,78.1%,78.6%,40.3%,140%,88%,35.3%,69.4%,98.6%,103%,124%,53.9%
"Cc1cc(Nc2cc(N3CCN(C)CC3)nc(Sc3ccc(NC(=O)C4CC4)cc3)n2)n[nH]1 [Tozasertib] + O=C(O)C(=O)Nc1sc2c(c1C(=O)O)CCNC2 [TCS401] (first compound 0.006 µM, partner dose 1.66667 µM)",125%,87.7%,45.6%,81.6%,161%,132%,67.6%,144%,109%,182%,127%,51.5%,98%,214%,91.1%,40.8%
"O=C(/C=C/c1cccnc1)NCCCCC1CCN(C(=O)c2ccccc2)CC1 + CC1(C)NC(=O)N(c2ccc([N+](=O)[O-])c(C(F)(F)F)c2)C1=O [nilutamide] (first compound 0.01 µM, partner dose 1 µM)",574%,43.7%,95.8%,207%,129%,429%,84.7%,38.4%,82.1%,185%,97.5%,73.4%,97.9%,83.6%,100%,22.8%
"N#CC[C@H](C1CCCC1)n1cc(-c2ncnc3[nH]ccc23)cn1 [ruxolitinib] + COc1cc(N2CCC(N3CCN(C)CC3)CC2)ccc1Nc1ncc(Cl)c(Nc2ccccc2S(=O)(=O)C(C)C)n1 [NVP-TAE684] (first compound 1 µM, partner dose 0.08 µM)",77.5%,115%,141%,262%,108%,78.6%,194%,42.4%,335%,118%,80%,41.9%,100%,79.4%,90.5%,105%
"O=C(/C=C/c1cccnc1)NCCCCC1CCN(C(=O)c2ccccc2)CC1 + OCCn1cc(-c2cnc3nnn(Cc4ccc5ncccc5c4)c3n2)cn1 [PF04217903] (first compound 0.01 µM, partner dose 1 µM)",1160%,57.5%,46.4%,41.8%,112%,714%,67.2%,98.7%,71.4%,47.8%,211%,143%,75.5%,60.1%,80.9%,75.9%
"Cc1cc(Nc2cc(N3CCN(C)CC3)nc(Sc3ccc(NC(=O)C4CC4)cc3)n2)n[nH]1 [Tozasertib] + N#Cc1c(O)c2c(-c3ccc(-c4ccccc4O)cc3)csc2[nH]c1=O [A769662] (first compound 0.006 µM, partner dose 2 µM)",67.1%,118%,198%,41.5%,114%,44.1%,66%,76.1%,80.9%,92.4%,105%,64.6%,117%,75.5%,102%,174%
"CCCCCCCCCCCCCCCCCCOP(=O)([O-])OC1CC[N+](C)(C)CC1 [Perifosine] + C=CCn1c(=O)c2cnc(Nc3ccc(N4CCN(C)CC4)cc3)nc2n1-c1cccc(C(C)(C)O)n1 [MK1775] (first compound 0.4 µM, partner dose 0.02 µM)",97.8%,42.9%,241%,130%,121%,55.4%,87.3%,379%,66.7%,104%,45%,170%,100%,48.1%,98.2%,223%
"CC[C@]1(O)C[C@H]2CN(CCc3c([nH]c4ccccc34)[C@@](C(=O)OC)(c3cc4c(cc3OC)N(C=O)[C@H]3[C@@](O)(C(=O)OC)[C@H](OC(C)=O)[C@]5(CC)C=CCN6CC[C@]43[C@@H]65)C2)C1 [vincristine] + OCCn1cc(-c2cnc3nnn(Cc4ccc5ncccc5c4)c3n2)cn1 [PF04217903] (first compound 0.0001 µM, partner dose 1 µM)",88.4%,67.3%,79.1%,80.3%,61.9%,82.6%,80.8%,137%,108%,50.4%,223%,218%,277%,40.5%,111%,36.3%
"O=C(Nc1cc(C(F)(F)F)cc(C(F)(F)F)c1)c1cc(Cl)ccc1O + Oc1cc(-c2nc(-c3ccccc3)[nH]c2-c2ccncc2)ccc1Cl [L779450] (first compound 0.016 µM, partner dose 0.2 µM)",93%,124%,29.7%,222%,149%,110%,85.5%,67%,173%,218%,120%,75.1%,87.9%,108%,109%,40.1%
"O=C(Nc1cc(C(F)(F)F)cc(C(F)(F)F)c1)c1cc(Cl)ccc1O + O=c1cc(-c2cccc3c2Sc2ccccc2S3)oc(N2CCOCC2)c1 [KU55933] (first compound 0.016 µM, partner dose 1 µM)",128%,90%,76.3%,19%,114%,125%,35.4%,66.2%,36.7%,895%,108%,57.6%,176%,242%,88.1%,102%
"N#CC[C@H](C1CCCC1)n1cc(-c2ncnc3[nH]ccc23)cn1 [ruxolitinib] + COc1ccc(COc2ccc(Cc3cnc(N)nc3N)cc2OC)cc1 [GW2580] (first compound 1 µM, partner dose 1 µM)",137%,100%,287%,89%,124%,106%,278%,84.4%,318%,131%,38.2%,200%,92.5%,65.7%,220%,74.9%
"N#CC[C@H](C1CCCC1)n1cc(-c2ncnc3[nH]ccc23)cn1 [ruxolitinib] + Cc1ccc(NC(=O)c2cccc(N(C)C)c2)cc1NC(=O)c1ccc(O)cc1 [ZM336372] (first compound 1 µM, partner dose 2 µM)",155%,109%,49.9%,188%,207%,73.6%,63.6%,233%,35.9%,195%,120%,90.9%,103%,55.7%,96.4%,83.5%
"Cc1ccc(Nc2nccc(N(C)c3ccc4c(C)n(C)nc4c3)n2)cc1S(N)(=O)=O [Pazopanib] + OCCn1cc(-c2cnc3nnn(Cc4ccc5ncccc5c4)c3n2)cn1 [PF04217903] (first compound 0.4 µM, partner dose 1 µM)",40%,47.2%,173%,101%,77.2%,122%,70.6%,69.2%,77.5%,145%,183%,161%,186%,58.9%,81.2%,264%
"O=c1[nH]nc(Sc2ncc([N+](=O)[O-])s2)n1-c1ccc2c(c1)OCCO2 + NC(=O)Nc1cc(-c2cccc(F)c2)sc1C(=O)N[C@H]1CCCNC1 [AZD7762] (first compound 0.2 µM, partner dose 0.02 µM)",100%,69%,59.1%,81.4%,219%,97.9%,63.2%,37%,215%,92.5%,48.7%,71.9%,218%,65.3%,146%,59.2%
"N#CC[C@H](C1CCCC1)n1cc(-c2ncnc3[nH]ccc23)cn1 [ruxolitinib] + CN(NC(=O)CC(=O)NN(C)C(=S)c1ccccc1)C(=S)c1ccccc1 [STA4783] (first compound 1 µM, partner dose 0.006 µM)",127%,55.5%,45.8%,95.7%,54.6%,24.4%,68.3%,67.4%,133%,165%,41.1%,100%,152%,44.7%,129%,53.9%
"Cc1cc(Nc2cc(N3CCN(C)CC3)nc(Sc3ccc(NC(=O)C4CC4)cc3)n2)n[nH]1 [Tozasertib] + Cc1ccc(NC(=O)c2cccc(N(C)C)c2)cc1NC(=O)c1ccc(O)cc1 [ZM336372] (first compound 0.006 µM, partner dose 2 µM)",35%,62%,307%,198%,28.3%,52.4%,64.1%,167%,85.2%,131%,84.5%,142%,115%,337%,97.6%,46%
"Cc1ccc(Nc2nccc(N(C)c3ccc4c(C)n(C)nc4c3)n2)cc1S(N)(=O)=O [Pazopanib] + COc1ccc(-c2ccc3c(N4CCOCC4)nc(N4C[C@@H](C)O[C@@H](C)C4)nc3n2)cc1CO [KU0063794] (first compound 0.4 µM, partner dose 0.02 µM)",178%,63.2%,242%,123%,129%,142%,29.4%,41.5%,141%,69.8%,72.9%,180%,91.1%,83.8%,111%,48.3%

# Only cleaved PARP positive nuclei fraction [7] (two entries from above):
Compound,cleaved PARP positive nuclei fraction [7]
"Cc1ccc(Nc2nccc(N(C)c3ccc4c(C)n(C)nc4c3)n2)cc1S(N)(=O)=O [Pazopanib] + OCCn1cc(-c2cnc3nnn(Cc4ccc5ncccc5c4)c3n2)cn1 [PF04217903] (first compound 0.4 µM, partner dose 1 µM)",70.6%
"O=c1[nH]nc(Sc2ncc([N+](=O)[O-])s2)n1-c1ccc2c(c1)OCCO2 + NC(=O)Nc1cc(-c2cccc(F)c2)sc1C(=O)N[C@H]1CCCNC1 [AZD7762] (first compound 0.2 µM, partner dose 0.02 µM)",63.2%
